{"sequences": {"note": "The chains behind the UniProt entries cited, without tags or fusion partners. Residues count along the entry.", "UniProt P36544, residues 23-502": "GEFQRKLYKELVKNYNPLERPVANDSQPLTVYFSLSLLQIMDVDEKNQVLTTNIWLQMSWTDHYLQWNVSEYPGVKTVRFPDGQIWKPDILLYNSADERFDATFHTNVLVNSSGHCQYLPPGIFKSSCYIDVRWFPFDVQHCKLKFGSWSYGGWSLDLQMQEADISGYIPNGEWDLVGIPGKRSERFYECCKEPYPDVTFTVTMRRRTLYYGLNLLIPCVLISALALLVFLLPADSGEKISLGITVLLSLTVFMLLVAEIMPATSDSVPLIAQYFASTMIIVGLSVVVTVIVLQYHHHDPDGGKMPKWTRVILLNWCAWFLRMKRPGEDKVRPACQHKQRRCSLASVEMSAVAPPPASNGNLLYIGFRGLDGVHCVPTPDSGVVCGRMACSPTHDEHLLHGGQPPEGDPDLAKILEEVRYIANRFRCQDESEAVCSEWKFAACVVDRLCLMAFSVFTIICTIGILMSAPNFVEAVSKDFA", "UniProt P60615, residues 22-95": "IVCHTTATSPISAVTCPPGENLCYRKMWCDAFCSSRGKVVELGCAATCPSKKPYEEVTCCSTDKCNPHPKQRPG"}, "source": "paper PMC3113800", "molecular_target": "human α7 nicotinic acetylcholine receptor (human) (UniProt P36544)", "assay": "radioligand binding; only the binder purified", "note": "No constants are given. Whether binding was seen depends on the method and setting. Some entries that bind do so weakly or less than the wild type."}
{"substance": "radioactive α-bungarotoxin (from UniProt P60615 22-95)", "values": [{"measurement": "binding", "value": "binds"}]}
